Assay: Set-off migration test (targeted analysis of acrylates migrating from printed stacks into ethanol)
Conditions: 3-layer stack (white, cyan, OPV) on aluminium, UV cured; 40°C for 10 days; EU model

Substance | Migration results of the targeted analysis, Stack made of PO3-GPTA containing materials | Migration results of the targeted analysis, Stack made of PO6-TMPTA containing materials | Migration results of the targeted analysis, Stack made of PO9-GPTA containing materials
Propoxylated Glycerol Triacrylate [PO3-GPTA] | 230 ppb | <10 ppb | 
Propoxylated Glycerol Triacrylate [PO9-GPTA] |  |  | <10 ppb

From patent EP4437048B1, “ENERGY CURABLE INK, COATING AND PRIMER COMPOSITIONS CONTAINING HIGHLY ALKOXYLATED GLYCEROL ACRYLATES FOR RETORT PACKAGING APPLICATIONS” (Sun Chemical B.V., priority 2022, dated 2024)
